{
  "source": "PubChem BioAssay AID624297",
  "about": "(National Center for Advancing Translational Sciences (NCATS), 2012)",
  "note": "Out of some 340,000 compounds screened, about 6,200 (1.8%) were called active. The inconclusive results got no clear call from the source; some entries with a clear call stand among them for comparison. Calls come from the whole dose curve; as a rule, active = well fitted activation curve with a large enough effect; inconclusive = small, poorly fitted or top-dose-only effect; inactive = no such curve, though single readings can be large or run the other way. A potency beside an inconclusive call is a rough fit, not a confirmed value.",
  "data": [
    {"assay": "A quantitative high throughput screen for small molecules that induce DNA re-replication in SW480 colon adenocarcinoma cells; note: nearly all actives have a fitted effect of over 55% in size; note: potency is the fitted concentration of half-maximal effect; for re-replication activation: % of control where 0% means no effect.", "settings": "Hoechst DNA content imaging, 48 h; re-replication activation: at 46.1 µM (top of the series) unless noted", "procedure,_shortened": "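DNA re-replication was detected as more nuclei of elevated Hoechst intensity after 48 hr exposure to compound (23 nL pinned per well of 250 cells).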", "values": [
      {"compound": "Cc1ccc(C(C)NC(=O)c2ccc3c(c2)OCCO3)cc1C", "note": "(stereo not drawn)", "Potency": "inconclusive: 29.1 µM [activator, single point]"},
      {"compound": "Cn1cccc1C(=O)Nc1nc(-c2ccccn2)cs1", "Potency": "inconclusive: 4.61 µM [activator, partial curve]"},
      {"compound": "Cc1ccc(C(C)C)c(OCC(=O)c2c(O)c3ccccc3oc2=O)c1", "Potency": "inactive"},
      {"compound": "CCCCNS(=O)(=O)c1ccc2nc(SCC(N)=O)[nH]c2c1", "re-replication activation": "inconclusive: -19.6% [activator]"},
      {"compound": "COC(=O)c1ccc(Oc2cc(C)nc(Cl)n2)cc1", "Potency": "inconclusive: 1.46 µM [activator, full curve, poor fit]"},
      {"compound": "O=C(Nc1ccc([N+](=O)[O-])cc1)C(Cc1ccccc1)N1C(=O)c2cccc3cccc(c23)C1=O", "note": "(stereo not drawn)", "Potency": "active: 18.4 µM"},
      {"compound": "CCCCNC(=O)c1cccc(S(=O)(=O)N2CC3(C)CC2CC(C)(C)C3)c1", "note": "(stereo not drawn)", "Potency": "inactive"},
      {"compound": "NC(=S)N/N=C/c1c[nH]c2ccccc12", "Potency": "inactive"},
      {"compound": "CCSc1nnc2n1C(C)(C)Cc1ccccc1-2", "re-replication activation": "inconclusive: 18.3% [activator]"},
      {"compound": "O=S(=O)(c1ccccc1)N1N=C(c2cccs2)CC1c1ccc(F)cc1", "note": "(stereo not drawn)", "Potency": "inconclusive: 16.4 µM [activator, single point]"},
      {"compound": "CCOc1ccc(-c2[nH]nc3c2C(c2ccc4c(c2)OCO4)C(C#N)=C(N)O3)cc1OC", "note": "(stereo not drawn)", "Potency": "inconclusive: 29.1 µM [activator, single point]"},
      {"compound": "CCOC(=O)N1CCN(C(=O)CSC2=NS(=O)(=O)c3ccccc3N2)CC1", "Potency": "inconclusive: 14.6 µM [activator, single point]"},
      {"compound": "C=CC(=O)Nc1cccc(Oc2ccnc(Nc3ccc(N4CCN(C)CC4)cc3)n2)c1", "Potency": "inconclusive: 25.9 µM [activator, single point]"},
      {"compound": "O=[N+]([O-])c1ccccc1S(=O)(=O)Nc1cccc2cccnc12", "Potency": "active: 13 µM"},
      {"compound": "CN1CCN(/C=N/c2c(C#N)cnn2-c2ccccc2)CC1", "Potency": "inactive"},
      {"compound": "COc1cccc(C(=O)N/N=C(/c2ccccc2)c2ccccn2)c1", "Potency": "inconclusive: 14.1 µM [activator, single point]"},
      {"compound": "Cc1sc(NC(=O)CSc2nnc(C(C)C)n2C)c(C#N)c1C", "Potency": "inactive"},
      {"compound": "CCCc1nnc(NC(=O)CCC(=O)Nc2ccc(F)cc2)s1", "Potency": "inconclusive: 29.1 µM [activator, single point]"},
      {"compound": "COc1cc(/C=C(/C#N)C(=O)Nc2ccc(Cl)cc2)ccc1Oc1nc(Cl)ncc1F", "Potency": "inactive"},
      {"compound": "C/C=C(\\C)CN1CCC(n2nccc2NC(=O)c2ccc3c(c2)OCO3)CC1", "Potency": "inconclusive: 29.1 µM [activator, single point]"},
      {"compound": "COC(=O)c1ccc(-c2noc(CN3CCCCC3c3nccn3C)n2)cc1", "note": "(stereo not drawn)", "Potency": "inactive"},
      {"compound": "CC(=O)Nc1ccc2c(c1)CCCC2", "Potency": "inactive"},
      {"compound": "NC(=O)c1ccccc1OCCOc1ccc(Br)cc1", "Potency": "inconclusive: 7.31 µM [activator, partial curve, poor fit]"},
      {"compound": "O=C(Nc1ccc(Cc2ccncc2)cc1)c1ccc(S(=O)(=O)N2CCCC2)cc1", "Potency": "inconclusive: 29.1 µM [activator, single point]"},
      {"compound": "O=C(NC1CCCC1)C(c1ccncc1)N(Cc1ccccc1)C(=O)c1ccc(-c2ccccc2)[nH]1", "note": "(stereo not drawn)", "Potency": "inconclusive: 14.6 µM [activator, partial curve, poor fit]"},
      {"compound": "O=C(CCS(=O)(=O)c1cccc2nonc12)Nc1ccc(Br)cc1", "Potency": "inactive"},
      {"compound": "COC(=O)c1[nH]c2ccc(F)cc2c1NC(=O)CCN1CCN(Cc2ccc3c(c2)OCO3)CC1", "Potency": "inactive"},
      {"compound": "Cc1ccc(C)c(OCC(=O)NC2CCCCCC2)c1", "Potency": "inactive"},
      {"compound": "Cc1ccc(/C(O)=C/c2nc3ccccc3oc2=O)cc1", "Potency": "inconclusive: 13 µM [activator, partial curve, poor fit]"},
      {"compound": "NC(N)=Nc1nc2ccc(Cl)cc2c(=O)[nH]1", "Potency": "inactive"},
      {"compound": "Cc1cc(C)nc(/N=C(\\N)Nc2ccc3c(c2)OCCO3)n1", "Potency": "inactive"},
      {"compound": "CC(C)CCN1CCN(Cc2nc(-c3ccccc3)cs2)CC1CCO", "note": "(stereo not drawn)", "Potency": "inconclusive: 6.51 µM [activator, partial curve, poor fit]"},
      {"compound": "COc1ccc(/C=N/NC(=O)c2nc(-c3ccccc3)n(-c3ccccc3)n2)c(O)c1", "Potency": "inconclusive: 4.11 µM [activator, full curve, poor fit]"},
      {"compound": "Cc1cccc(C)c1NC(=O)C(C)Sc1nnc(C)n1CC1CCCO1", "note": "(stereo not drawn)", "Potency": "inactive"},
      {"compound": "CS(=O)(=O)c1ccc(C(=O)Nc2nc(-c3ccco3)c(-c3ccco3)s2)cc1", "Potency": "inactive"},
      {"compound": "Cc1ccc(NC(=O)CC2S/C(=N/N=C/c3ccco3)NC2=O)cc1Cl", "note": "(stereo not drawn)", "Potency": "inactive"},
      {"compound": "CC(=O)Nc1cccc(-c2nc3ccc(NC(C)=O)cc3s2)c1", "Potency": "inconclusive: 5.8 µM [activator, full curve, poor fit]"},
      {"compound": "O=c1c2c(-c3cccs3)csc2ncn1/N=C/c1ccc(OC(F)F)cc1", "Potency": "inactive"},
      {"compound": "O=C(C1CCOCC1)N1CCCC(N2CCN(c3cccc(C(F)(F)F)c3)CC2)C1", "note": "(stereo not drawn)", "Potency": "inconclusive: 20.6 µM [activator, single point]"},
      {"compound": "COCCCNC(=O)Cn1cnc2sc(C)c(S(=O)(=O)N3CC(C)CC(C)C3)c2c1=O", "note": "(stereo not drawn)", "Potency": "inactive"},
      {"compound": "N#C/C(=C(/O)c1cccs1)c1nc2ccccc2[nH]1", "Potency": "active: 16.4 µM"},
      {"compound": "Cn1c(-c2ccc(C=O)s2)nc2c3ccccc3c3ccccc3c21", "Potency": "inconclusive: 20.6 µM [activator, single point]"},
      {"compound": "O=C(NN1C(=O)c2ccccc2NC1c1ccco1)c1ccc(Br)cc1", "note": "(stereo not drawn)", "Potency": "inactive"},
      {"compound": "NS(=O)(=O)c1ccc(CCNC(=O)COC(=O)C2CCN(c3ccc(C(F)(F)F)cn3)CC2)cc1", "Potency": "inactive"},
      {"compound": "O=C(CSc1nnc(NC(=O)c2ccc(F)cc2F)s1)NC1CC1", "Potency": "inactive"},
      {"compound": "Cc1nn(-c2ccccc2)c(C)c1/C=N/NC(=O)c1cccs1", "Potency": "inconclusive: 2.91 µM [activator, full curve, poor fit]"},
      {"compound": "CC(=O)C1=C(C)NC(SCC(=O)c2ccc(F)cc2)=C(C#N)C1CC(C)C", "note": "(stereo not drawn)", "Potency": "inconclusive: 20.6 µM [activator, single point]"},
      {"compound": "CCN(C(=O)C1CCCN(c2ncnc3c2nc2n3CCCCC2)C1)c1cccc(Cl)c1", "note": "(stereo not drawn)", "Potency": "inactive"},
      {"compound": "CCCCCCCCn1c(=O)c(C(=O)OCC)c(O)c2ccccc21", "Potency": "inactive"},
      {"compound": "COC(=O)c1c(NC(=O)COC(=O)c2ccc(O)cc2)sc2c1CCCCC2", "Potency": "inconclusive: 29.1 µM [activator, single point]"},
      {"compound": "CCN1C(=O)/C(=c2\\sc3nc(=O)c(Cc4ccccc4)nn3c2=O)c2ccccc21", "Potency": "inactive"},
      {"compound": "CN(CC(=O)Nc1cccc(F)c1)C(=O)c1ccc2c(c1)CC(c1ccccc1)OC2=O", "note": "(stereo not drawn)", "Potency": "active: 18.4 µM"},
      {"compound": "COc1ccc(C2=NS(=O)(=O)N(C)C(C(=O)Nc3ccc4c(c3)OCO4)=C2)cc1", "Potency": "inconclusive: 29.1 µM [activator, single point]"},
      {"compound": "O=C(O)c1ccc2c(c1)C(=O)N(c1nccs1)C2=O", "Potency": "inconclusive: 0.651 µM [activator, full curve, poor fit]"},
      {"compound": "CCCOc1cccc(C(=O)Nc2cccnc2)c1", "Potency": "inconclusive: 23.1 µM [activator, partial curve, poor fit]"},
      {"compound": "CC1=CC(C2CC(=O)N(c3ccc(C)cc3)C2=O)CC2C(=O)N(c3ccc(C)cc3)C(=O)C12", "note": "(stereo not drawn)", "Potency": "inconclusive: 29.1 µM [activator, single point]"},
      {"compound": "Cc1ccc(Cn2c(=N)c(C(=O)NCCN3CCOCC3)cc3c(=O)n4ccccc4nc32)cc1", "re-replication activation": "inconclusive: 16% [activator]"},
      {"compound": "Cc1c(Cl)cccc1NC(=O)NCc1ccc(C)n1C", "Potency": "inconclusive: 29.1 µM [activator, single point]"},
      {"compound": "Cc1cccc(NC(=O)CSc2nnc(-c3n[nH]c4ccccc34)o2)c1", "re-replication activation": "inconclusive: 47.5% [activator]"},
      {"compound": "O=C(O)[C@H]1CN(C/C=C/P(=O)(O)O)CCN1", "Potency": "inactive"},
      {"compound": "Cc1ccc(-c2n[nH]c(=S)n2Cc2ccccc2)cc1", "Potency": "inconclusive: 18.4 µM [activator, single point]"},
      {"compound": "O=C(N=C1c2ccccc2CN1c1ccc(F)c(F)c1)c1cccnc1", "Potency": "inconclusive: 0.58 µM [activator, full curve, poor fit]"},
      {"compound": "O=C(Cn1cc([N+](=O)[O-])cn1)Nc1nc2ccccc2s1", "Potency": "inconclusive: 29.1 µM [activator, single point]"},
      {"compound": "COc1ccc(CCn2c(Br)nc3c2c(=O)[nH]c(=O)n3C)cc1", "Potency": "inconclusive: 4.11 µM [activator, full curve]"},
      {"compound": "CC(Oc1ccccc1[N+](=O)[O-])C(=O)N/N=C/c1ccoc1", "note": "(stereo not drawn)", "Potency": "inconclusive: 25.9 µM [activator, single point]"},
      {"compound": "Cc1cccc(C(=O)N2CCC(Cc3ccccc3)CC2)c1[N+](=O)[O-]", "Potency": "inconclusive: 3.66 µM [activator, full curve, poor fit]"},
      {"compound": "CC(=O)C(=Nc1ccc(Cl)cc1Cl)NNc1cccc(Cl)c1", "re-replication activation": "inactive: -1.26% [at 9.22 µM]"},
      {"compound": "O=C(N/N=C/c1ccc2c(c1)OCO2)c1ccc2c(c1)OCCO2", "Potency": "inconclusive: 29.1 µM [activator, partial curve, poor fit]"},
      {"compound": "S=C(NCCSCc1ccc(Cl)c(Cl)c1)Nc1ccccc1", "Potency": "inconclusive: 32.6 µM [activator, partial curve, poor fit]"},
      {"compound": "O=C(Nc1ccccc1N1CCCC1)c1ccc([N+](=O)[O-])o1", "Potency": "active: 5.17 µM"},
      {"compound": "CN1C/C(=C/c2cccnc2)C(=O)/C(=C/c2cccnc2)C1", "Potency": "inconclusive: 0.326 µM [activator, full curve, poor fit]"},
      {"compound": "Cc1cc(C)c2c(N)c(C(=O)NCC3CCCCC3)sc2n1", "Potency": "inconclusive: 20.6 µM [activator, partial curve, poor fit]"},
      {"compound": "CCc1ccc(-n2c(SCc3cc(=O)n4cc(Br)ccc4n3)nc3[nH]ncc3c2=O)cc1", "Potency": "inconclusive: 23.1 µM [activator, single point]"}
    ]}
  ]
}
